Drawing on patent US6649588, this text covers binding for two substances.

The chains behind the UniProt entries cited, without tags or fusion partners. Residues count along the entry.
UniProt Q62432, residues 2-467: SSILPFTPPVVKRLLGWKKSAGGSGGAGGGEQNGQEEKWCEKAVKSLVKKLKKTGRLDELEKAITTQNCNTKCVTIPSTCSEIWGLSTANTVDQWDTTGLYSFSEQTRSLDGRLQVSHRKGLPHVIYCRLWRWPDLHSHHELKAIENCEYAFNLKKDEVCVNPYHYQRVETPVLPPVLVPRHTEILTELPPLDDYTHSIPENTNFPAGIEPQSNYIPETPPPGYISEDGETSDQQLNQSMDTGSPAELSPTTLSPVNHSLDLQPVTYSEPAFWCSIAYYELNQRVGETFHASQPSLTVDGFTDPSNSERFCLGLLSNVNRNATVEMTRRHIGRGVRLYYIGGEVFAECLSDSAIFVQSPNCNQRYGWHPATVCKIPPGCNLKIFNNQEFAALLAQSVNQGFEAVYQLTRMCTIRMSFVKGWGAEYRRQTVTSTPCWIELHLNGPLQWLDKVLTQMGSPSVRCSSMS
UniProt P97471: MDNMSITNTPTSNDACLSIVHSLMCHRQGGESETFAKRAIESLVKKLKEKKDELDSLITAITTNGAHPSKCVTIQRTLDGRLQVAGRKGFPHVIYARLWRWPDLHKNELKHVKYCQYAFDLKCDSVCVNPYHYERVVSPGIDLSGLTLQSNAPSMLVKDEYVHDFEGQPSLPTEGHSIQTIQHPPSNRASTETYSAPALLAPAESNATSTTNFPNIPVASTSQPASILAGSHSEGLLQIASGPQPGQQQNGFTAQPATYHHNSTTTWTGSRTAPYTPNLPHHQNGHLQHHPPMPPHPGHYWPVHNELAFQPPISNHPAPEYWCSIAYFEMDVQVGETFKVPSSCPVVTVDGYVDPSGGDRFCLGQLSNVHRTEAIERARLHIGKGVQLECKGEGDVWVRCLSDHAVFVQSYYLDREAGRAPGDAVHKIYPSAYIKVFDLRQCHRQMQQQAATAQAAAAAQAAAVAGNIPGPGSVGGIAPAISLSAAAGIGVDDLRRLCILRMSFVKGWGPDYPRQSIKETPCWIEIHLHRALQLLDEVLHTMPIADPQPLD

For assay [1], the target named is T1, TGF-β receptor type I (mouse) (UniProt Q64729).
T1 sequence (looked up): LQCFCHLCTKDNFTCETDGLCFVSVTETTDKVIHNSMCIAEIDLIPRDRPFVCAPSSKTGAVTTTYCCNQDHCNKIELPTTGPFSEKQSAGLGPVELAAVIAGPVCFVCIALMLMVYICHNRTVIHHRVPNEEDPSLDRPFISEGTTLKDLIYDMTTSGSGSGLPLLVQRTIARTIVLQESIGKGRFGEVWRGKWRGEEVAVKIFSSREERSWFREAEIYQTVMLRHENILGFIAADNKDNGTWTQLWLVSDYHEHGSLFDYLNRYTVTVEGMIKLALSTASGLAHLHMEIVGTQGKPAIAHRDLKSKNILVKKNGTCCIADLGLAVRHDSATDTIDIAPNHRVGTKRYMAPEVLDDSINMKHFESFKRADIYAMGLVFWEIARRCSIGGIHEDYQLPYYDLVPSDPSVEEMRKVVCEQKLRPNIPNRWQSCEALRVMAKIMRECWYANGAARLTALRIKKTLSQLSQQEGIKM
Put plainly: IP with anti-Smad2 from lysates of P19 cells whose receptors were cross-linked to radioiodinated TGF-β; SDS-PAGE and autoradiography.

The next assay deals with Smad2 (mouse) (UniProt Q62432). The assay can be described thus: Co-immunoprecipitation: Smad2 IP from the nuclear fraction of TGF-β-treated P19 cells, Western blot for Smad4.

These are yes or no findings as the source states them, for the method shown. For some assays here: In cells and extracts the contact can be indirect. Some entries that bind do so weakly or less than the wild type.

Turning to Smad2 (from UniProt Q62432 2-467), the binding result in assay [1] is recorded as “binds”.

Consider Smad4 (from UniProt P97471 1-551), for which the binding result with Smad2 (mouse) is reported as “binds”.
